PubChem BioAssay AID1159584, Peter MacCallum Cancer Centre | 2016

Test: 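Genes whose loss is lethal only together with E-cadherin loss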 (primary screen)
System: human MCF10A breast epithelial cells, parental and CDH1-null
Knock-down reagent: siRNA against human genes
Measurement: 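ATP luminescence (CellTiter-Glo) viability per line relative to mean mock wells over all plates, and the ratio of CDH1-null to parental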
Scale: CDH1-null / parental viability ratio: higher = CDH1-null cells survive relatively better than parental
This is a random part of about 18,000 reagents tested. Further read-outs or replicates are left out here. Not stated in the record: the amount of reagent, the time to read-out.

{"gene knocked down": "SCAI", "CDH1-null / parental viability ratio": 1.22}
{"gene knocked down": "ARPP19", "CDH1-null / parental viability ratio": 0.97}
{"gene knocked down": "CYP26C1", "CDH1-null / parental viability ratio": 0.89}
{"gene knocked down": "UGT1A1", "CDH1-null / parental viability ratio": 0.95}
{"gene knocked down": "C1orf210", "CDH1-null / parental viability ratio": 1.27}
{"gene knocked down": "PARD6G", "CDH1-null / parental viability ratio": 0.92}
{"gene knocked down": "TEX264", "CDH1-null / parental viability ratio": 0.99}
{"gene knocked down": "RGS5", "CDH1-null / parental viability ratio": 0.96}
{"gene knocked down": "OCLM (retired record)", "CDH1-null / parental viability ratio": 1.13}
{"gene knocked down": "DECR2", "CDH1-null / parental viability ratio": 0.93}
{"gene knocked down": "KIF20B", "CDH1-null / parental viability ratio": 1.03}
{"gene knocked down": "SAMD5", "CDH1-null / parental viability ratio": 1.01}
{"gene knocked down": "CNFN", "CDH1-null / parental viability ratio": 1.08}
{"gene knocked down": "KRT33A", "CDH1-null / parental viability ratio": 1.15}
{"gene knocked down": "PIK3C2B", "CDH1-null / parental viability ratio": 0.91}
{"gene knocked down": "LYPD3", "CDH1-null / parental viability ratio": 1.07}
{"gene knocked down": "SERINC2", "CDH1-null / parental viability ratio": 1.22}
{"gene knocked down": "PRRC2C", "CDH1-null / parental viability ratio": 1.05}
{"gene knocked down": "STMN2", "CDH1-null / parental viability ratio": 0.82}
{"gene knocked down": "GRM4", "CDH1-null / parental viability ratio": 0.83}
{"gene knocked down": "CTNS", "CDH1-null / parental viability ratio": 1.2}
{"gene knocked down": "SLAMF1", "CDH1-null / parental viability ratio": 0.85}
{"gene knocked down": "PAGE2", "CDH1-null / parental viability ratio": 1.07}
{"gene knocked down": "RBM45", "CDH1-null / parental viability ratio": 1.13}
{"gene knocked down": "SFN", "CDH1-null / parental viability ratio": 1.26}
{"gene knocked down": "NLGN4Y", "CDH1-null / parental viability ratio": 0.9}
{"gene knocked down": "YPEL1", "CDH1-null / parental viability ratio": 1.08}
{"gene knocked down": "BICRA", "CDH1-null / parental viability ratio": 1.03}
{"gene knocked down": "FAM161A", "CDH1-null / parental viability ratio": 1.25}
{"gene knocked down": "ZNF561", "CDH1-null / parental viability ratio": 0.91}
{"gene knocked down": "SFRP2", "CDH1-null / parental viability ratio": 1.1}
{"gene knocked down": "KIF26A", "CDH1-null / parental viability ratio": 1.06}
{"gene knocked down": "HAUS6", "CDH1-null / parental viability ratio": 1.06}
{"gene knocked down": "F7", "CDH1-null / parental viability ratio": 1.12}
{"gene knocked down": "EGR3", "CDH1-null / parental viability ratio": 1.06}

An excerpt from the list above, as a working copy:
{"gene knocked down": "NLGN4Y", "CDH1-null / parental viability ratio": 0.9}
{"gene knocked down": "YPEL1", "CDH1-null / parental viability ratio": 1.08}
